The values below come from patent US20150051372 (published 2015).

The series is described as follows: general procedure: Fmoc solid-phase peptide synthesis. The following applies: for step yield / final purity (method not given): purification step; for step yield: overall yield of purification; for crude purity (method not given): whole synthesis.

Regarding liraglutide, the step yield by setting is: (run 1) 64.4%; (run 2) 61.3%; (run 3) 61.1%; (run 4) 61.3%; (run 5) 62.9%. Moreover, the “final purity (method not given)” value (run 1) is recorded as 98.6%; the “final purity (method not given)” value (run 2) amounted to 98.4%; the “final purity (method not given)” value (run 3) was 98.7%; the “final purity (method not given)” value (run 4) was 98.4%; the “final purity (method not given)” value (run 5) stood at 98.2%. Further, the “crude purity (method not given)” value came to 50% (run 1); 60% (run 2); 58% (run 3); 53% (run 4); 56% (run 5).
